Measured values published in article PMC4872745.

Target: JNK (human (endogenous in SH-SY5Y))
Experiment: co-IP; SH-SY5Y treated with 0.5 uM TSA for 4 hours; WB with antibody against MKP-1, JNK and ERK

binding: binds
B1: MAPK phosphatase-1 (MKP-1) (enzyme, UniProt P28562 1-367)
chain: MVMEVGTLDAGGLRALLGERAAQCLLLDCRSFFAFNAGHIAGSVNVRFSTIVRRRAKGAMGLEHIVPNAELRGRLLAGAYHAVVLLDERSAALDGAKRDGTLALAAGALCREARAAQVFFLKGGYEAFSASCPELCSKQSTPMGLSLPLSTSVPDSAESGCSSCSTPLYDQGGPVEILPFLYLGSAYHASRKDMLDALGITALINVSANCPNHFEGHYQYKSIPVEDNHKADISSWFNEAIDFIDSIKNAGGRVFVHCQAGISRSATICLAYLMRTNRVKLDEAFEFVKQRRSIISPNFSFMGQLLQFESQVLAPHCSAEAGSPAMAVLDRGTSTTTVFNFPVSIPVHSTNSALSYLQSPITTSPSC

Results are given in words; binding and its absence hold for the method and conditions named. Binding seen in cells or lysates may run through a third protein. A result given as binding can be weak or reduced; the word gives no strength.
